{
  "source": "PubChem BioAssay AID493014",
  "about": "(National Center for Advancing Translational Sciences (NCATS), 2011)",
  "note": "In all, about 340,000 compounds went through this assay and about 170 (0.05%) were called active. The inconclusive results got no clear call from the source; some entries with a clear call stand among them for comparison. The call rests on the fitted dose curve; in most records, active means well fitted inhibition curve with a large enough effect in the signal ratio, with a control signal flat (not every such curve was filed as active); inconclusive means small, poorly fitted or top-dose-only effect, or effect the other way, or a change in a side signal; inactive means flat fitted curve, though single readings scatter; the % refers to the signal ratio. A potency beside an inconclusive call is a rough fit, not a confirmed value. Potency means the concentration at half of the fitted maximal effect.",
  "data": [
    {"assay": "qHTS Assay to Find Inhibitors of Chronic Active B-Cell Receptor Signaling;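 on activity change, negative = inhibition: plate controls were basal doxycycline-induced cells for no effect and cells given 10 µM MG132 for full effect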", "conditions": "ABC-DLBCL IkBa-CBG/CBR reporter, luminescence ratio (green luciferase fused to IkBa over red control in TMD8 lymphoma cells), 4 h; activity change, negative = inhibition: at 46.1 µM (top of the series)", "procedure,_shortened": "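Cell line TMD8 (human ABC DLBCL), stably expressing tet-inducible CBG68-IkBa fusion and CBR; IMDM/0.5% FBS; cpd up to 46 uM; dox induction, 4 h, 37C/5% CO2; dual luminescence; green/red ratio; MG132 control.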", "values": [
      {"smiles": "C=CCNc1nc(C(=O)OC(C)C(=O)c2ccc(C)cc2)cs1", "note": "(configuration not stated)", "activity change, negative = inhibition": "inconclusive: -0.819%"},
      {"smiles": "CC(C)c1ccc(S(=O)(=O)N2CCN(C(=O)CN3C(=O)c4ccccc4C3=O)CC2)cc1", "activity change, negative = inhibition": "inconclusive: -1.12%"},
      {"smiles": "FC(F)(F)c1ccc(C2[C@H]3CN(CC4CCCCC4)[C@H](c4ccccc4)C34CC2(c2cccnc2)C4)cc1", "note": "(some centres not stated)", "activity change, negative = inhibition": "inactive"},
      {"smiles": "CCOc1ccc(C2C(=O)N(C3CCCCCC3)CC(=O)N2CCc2ccc(Cl)cc2)cc1OC", "note": "(configuration not stated)", "activity change, negative = inhibition": "inconclusive: 4.64%"},
      {"smiles": "COc1ccc2[nH]cc(CCn3ccc(O)c(C/C=C/c4ccccc4)c3=O)c2c1", "activity change, negative = inhibition": "inconclusive: 0.823%"},
      {"smiles": "COc1ccc(-c2cc(C(=O)N3CCCc4ccccc43)no2)cc1", "activity change, negative = inhibition": "inconclusive: -1.8%"},
      {"smiles": "Cc1cccc(C(=O)N2CCC(n3nnc4cc(F)ccc43)CC2)c1", "activity change, negative = inhibition": "inactive"},
      {"smiles": "Cc1ccc(S(=O)(=O)N2CCN(c3nc(C)c4c(c3C#N)CC(C)(C)OC4)CC2)cc1", "activity change, negative = inhibition": "inactive"},
      {"smiles": "CCOC(=O)c1c(N)nn(C(=O)CC)c1-c1ccccc1", "activity change, negative = inhibition": "inconclusive: -26.3%"},
      {"smiles": "COc1ccc(/C=C/C(=O)c2cc(F)ccc2OC(=O)c2ccc(OC)c(OC)c2)cc1OC", "Potency": "inconclusive: 16.4 µM [falling, single point]"},
      {"smiles": "COc1ccc(Cl)cc1S(=O)(=O)N1CCCC1", "Potency": "inconclusive: 25.9 µM [falling, partial curve, poor fit]"},
      {"smiles": "O=C(Cn1nc(-c2cccc(Cl)c2)ccc1=O)NCC1COCCO1", "note": "(configuration not stated)", "activity change, negative = inhibition": "inconclusive: -10.5%"},
      {"smiles": "Cc1ccccc1NC(=O)C(=O)Nc1ccccc1C", "Potency": "inconclusive: 17.8 µM [falling, partial curve, poor fit]"},
      {"smiles": "O=C(NC1CCCC1)c1cc(-c2ccccc2O)on1", "activity change, negative = inhibition": "inconclusive: 228%"},
      {"smiles": "CCCc1ccc(-c2ccc(/C=C/C(=O)O)cc2)nc1", "Potency": "inconclusive: 5.17 µM [falling, partial curve, poor fit]"},
      {"smiles": "Cc1sc2ncnc(N3CCC(C(=O)Nc4ccc(Cl)cc4Cl)CC3)c2c1C", "activity change, negative = inhibition": "inconclusive: 6%"},
      {"smiles": "CCN(CC)C(=O)CSc1nnc(-c2ccccc2)o1", "Potency": "inconclusive: 32.6 µM [falling, single point]"},
      {"smiles": "CCOc1ccc(N2C(=O)C3C(C2=O)C3(c2ccccc2)c2ccccc2)cc1", "note": "(configuration not stated)", "activity change, negative = inhibition": "inconclusive: -0.117%"},
      {"smiles": "CCOC(=O)N1CCC(NC(=S)Nc2ccc3nc(N4CCN(C)CC4)cc(C)c3c2)CC1", "activity change, negative = inhibition": "inconclusive: -2.53%"},
      {"smiles": "Cc1cc(C)cc(NC(=O)c2cc(C)n(Cc3cccs3)c2C)c1", "Potency": "inconclusive: 4.47 µM [falling, full curve]"},
      {"smiles": "O=c1cc(-c2ccc([N+](=O)[O-])cc2)nc2cc(-c3ccc(F)cc3)[nH]n12", "Potency": "inconclusive: 8.2 µM [falling, partial curve, poor fit]"},
      {"smiles": "O=C(CSc1ccc(Cl)cc1)Nc1ccccc1N1CCN(C(=O)c2ccccc2)CC1", "activity change, negative = inhibition": "inconclusive: 0.176%"},
      {"smiles": "CC[C@]12c3[nH]c4cc(CCC(=O)N(C)C)ccc4c3CCN1C(=O)[C@@H](CC(=O)NC(C)(C)C)C[C@@H]2C(=O)N1CCN(C(=O)C2CC2)CC1", "activity change, negative = inhibition": "inconclusive: 2.74%"},
      {"smiles": "O=C(NC(=S)Nc1ccc2[nH]c(=O)[nH]c2c1)c1cccc(F)c1", "activity change, negative = inhibition": "inactive"},
      {"smiles": "COc1ccc(-c2nn(CC(=O)Nc3ccc(Cl)c(Cl)c3)c(=O)c3ccccc23)cc1", "activity change, negative = inhibition": "inactive"},
      {"smiles": "CCOc1ccccc1N(C(=O)CNC(=O)c1ccco1)C(C(=O)NC1CCCC1)c1cccnc1", "note": "(configuration not stated)", "activity change, negative = inhibition": "inconclusive: -28.9%"},
      {"smiles": "O=C(Nc1ccc2c(c1)OCO2)c1cc(-c2cccc(O)c2)on1", "Potency": "inconclusive: 11.2 µM [falling, partial curve, poor fit]"},
      {"smiles": "Cc1csc(NC(=O)CSc2nnc(-c3cccnc3)o2)n1", "Potency": "inconclusive: 17.8 µM [falling, partial curve, poor fit]"},
      {"smiles": "COCCSc1nnc(NC(=O)CSc2ccccc2)s1", "activity change, negative = inhibition": "inactive"},
      {"smiles": "CN(C)CCN(C(=O)c1ccco1)c1nc2cc3c(cc2s1)OCCO3", "activity change, negative = inhibition": "inactive"},
      {"smiles": "O=[N+]([O-])c1ccccc1S(=O)(=O)Nc1cccc(-c2ccc(N3CCOCC3)nn2)c1", "activity change, negative = inhibition": "inconclusive: 1.69%"},
      {"smiles": "CC(=O)Nc1ccc(S(=O)(=O)NNC(=O)c2ccc3c(c2)OCO3)cc1", "Potency": "inconclusive: 11.2 µM [falling, partial curve, poor fit]"},
      {"smiles": "CCSc1nsc(NC(=O)Nc2ccccc2F)n1", "Potency": "inconclusive: 5.62 µM [rising, single point]"},
      {"smiles": "COc1cc(CC(=O)Nc2cccc(S(=O)(=O)N(C)c3ccccc3)c2)cc(OC)c1OC", "Potency": "inconclusive: 25.9 µM [falling, partial curve, poor fit]"},
      {"smiles": "COc1ccc2c(c1)CCCC21NC(=O)NC1=O", "note": "(configuration not stated)", "activity change, negative = inhibition": "inconclusive: 1.11%"},
      {"smiles": "COc1ccc(NCC(=O)Nc2cccc(S(=O)(=O)N3CCCC3)c2)cc1Cl", "activity change, negative = inhibition": "inactive"},
      {"smiles": "O=C(NC(=S)Nc1cccc2c(O)cccc12)c1cccc(Br)c1", "Potency": "inconclusive: 12.6 µM [falling, single point]"},
      {"smiles": "Clc1ccccc1C(c1ccccc1)(c1ccccc1)n1ccnc1", "activity change, negative = inhibition": "inconclusive: -0.716%"},
      {"smiles": "Cc1cccc(Nc2nnc(-c3ccc(N4CCOCC4)c([N+](=O)[O-])c3)c3ccccc23)c1", "activity change, negative = inhibition": "inactive"},
      {"smiles": "COc1ccc(OC)c(/C=C/c2nc3ccccc3[nH]c2=O)c1", "Potency": "inconclusive: 2.82 µM [falling, full curve, poor fit]"},
      {"smiles": "COc1ccc(OC)c(NC(=O)c2ccccc2NC(=O)c2ccco2)c1", "Potency": "inconclusive: 11.2 µM [falling, partial curve]"},
      {"smiles": "CCC(C(=O)c1ccccc1)N(C(=O)c1ccccc1Cl)N1C(=O)C2C3C=CC(C3)C2C1=O", "note": "(configuration not stated)", "activity change, negative = inhibition": "inconclusive: 6.69%"},
      {"smiles": "NS(=O)(=O)c1ccc(-c2ccc(/C=N/Nc3ccc(C(=O)O)cc3)o2)cc1", "Potency": "inconclusive: 35.5 µM [rising, single point]"},
      {"smiles": "O=C(Cc1ccc(Cl)cc1)Nc1ccccc1C(=O)N1CCCCC1", "activity change, negative = inhibition": "inactive"},
      {"smiles": "Cc1cccc(C)c1Nc1nnc(SCc2cc([N+](=O)[O-])cc3c2OCOC3)s1", "Potency": "inconclusive: 29.1 µM [falling, single point]"},
      {"smiles": "CCOc1cc2c(Cl)ncnc2c(OCC)c1OCC", "activity change, negative = inhibition": "inconclusive: 9.93%"},
      {"smiles": "Cc1oc(-c2ccccc2)cc1C(=O)Nc1ccccc1", "Potency": "inconclusive: 0.92 µM [rising, full curve]"}
    ]}
  ]
}
